For one sequence, binding results are on record in doi:10.1101/253815.

Sequences of proteins named here, by UniProt entry; tags and fusion partners are left off.
UniProt Q9FHA2: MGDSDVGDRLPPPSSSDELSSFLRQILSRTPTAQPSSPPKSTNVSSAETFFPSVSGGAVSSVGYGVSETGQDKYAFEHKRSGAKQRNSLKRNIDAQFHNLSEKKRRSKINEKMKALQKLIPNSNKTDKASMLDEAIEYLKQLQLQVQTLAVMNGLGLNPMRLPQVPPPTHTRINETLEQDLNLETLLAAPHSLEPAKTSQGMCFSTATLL

These are yes or no findings as the source states them, for the method shown. Some results given as binding are weak or reduced against the parent protein; the word gives no strength.

The assay concerns the target T1, HECATE1 (HEC1), bait from pGBKT7-HEC1 (Arabidopsis thaliana) (UniProt Q9FHA7).
T1 sequence: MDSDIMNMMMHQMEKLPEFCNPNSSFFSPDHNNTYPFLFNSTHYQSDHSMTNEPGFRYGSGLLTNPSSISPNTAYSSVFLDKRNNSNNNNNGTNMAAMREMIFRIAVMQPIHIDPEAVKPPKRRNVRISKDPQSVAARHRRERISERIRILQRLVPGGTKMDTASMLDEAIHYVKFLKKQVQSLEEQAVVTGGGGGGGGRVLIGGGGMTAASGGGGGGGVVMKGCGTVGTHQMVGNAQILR
The assay can be described thus: two-hybrid.

As for “ALCATRAZ (ALC), prey from pGADT7-ALC (from UniProt Q9FHA2 1-210)”, the binding entry was “binds”.
